Test results as given in patent US6846911.
No constants are given. Whether binding was seen depends on the method and setting. In cells and extracts the contact can be indirect. Some entries that bind do so weakly or less than the wild type.

Key:
CD97 β subunit (human) [1] = target: T1, CD97 β subunit (human) (UniProt P48960); assay: co-immunoprecipitation
T1 sequence: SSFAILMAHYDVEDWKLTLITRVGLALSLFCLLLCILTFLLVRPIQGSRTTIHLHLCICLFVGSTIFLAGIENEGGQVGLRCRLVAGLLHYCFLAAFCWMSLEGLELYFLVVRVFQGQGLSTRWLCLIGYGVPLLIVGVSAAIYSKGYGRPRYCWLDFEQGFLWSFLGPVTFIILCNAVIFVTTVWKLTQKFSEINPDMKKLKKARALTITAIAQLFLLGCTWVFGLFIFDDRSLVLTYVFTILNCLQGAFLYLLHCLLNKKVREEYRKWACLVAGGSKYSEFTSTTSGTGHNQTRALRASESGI

CD97 β subunit (human) [2] = target: T1, CD97 β subunit (human); assay: co-immunoprecipitation; told in words
CD97 β subunit (human) [3] = target: T1, CD97 β subunit (human); assay: co-immunoprecipitation, nondenaturing conditions

Molecule: CD97 α subunit (isoforms not distinguished) (from UniProt P48960 21-530) (receptor)
- binding (CD97 β subunit (human) [1]): binds
- binding (CD97 β subunit (human) [2]): binds

B1: CD97 α3 subunit (receptor, human, UniProt P48960-2 21-437, looked up)
chain: QDSRGCARWCPQNSSCVNATACRCNPGFSSFSEIITTPTETCDDINECATPSKVSCGKFSDCWNTEGSYDCVCSPGYEPVSGAKTFKNESENTCQDVDECSSGQHQCDSSTVCFNTVGSYSCRCRPGWKPRHGIPNNQKDTVCEDMTFSTWTPPPGVHSQTLSRFFDKVQDLGRDSKTSSAEVTIQNVIKLVDELMEAPGDVEALAPPVRHLIATQLLSNLEDIMRILAKSLPKGPFTYISPSNTELTLMIQERGDKNVTMGQSSARMKLNWAVAAGAEDPGPAVAGILSIQNMTTLLANASLNLHSKKQAELEEIYESSIRGVQLRRLSAVNSIFLSHNNTKELNSPILFAFSHLESSDGEAGRDPPAKDVMPGPRQELLCAFWKSDSDRGGHWATEGCQVLGSKNGSTTCQCSHL
- binding (CD97 β subunit (human) [3]): binds
